PubChem BioAssay AID1224830 | NIAID, 2016

Screen: 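Genes whose knock-down alters the TNF-alpha reporter response to LPS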 (primary screen)
System: human THP-1 monocytic leukaemia cells, TNF dual-luciferase reporter clone, PMA-differentiated to macrophage-like cells
Knock-down reagent: siRNA pool against human genes, 50 nM
Time to read-out: LPS for 4 h, given about 3 days after siRNA transfection
Conditions: bacterial LPS (TLR4 ligand), 10 ng/ml
Read-out: 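Ratio of firefly to renilla light, scaled to the plate median and expressed as a robust z-score per replicate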
Scale: TNF reporter robust z-score: higher = stronger TNF reporter response to LPS
Call rule: 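Each well counts as active if its z-score is over 2.8 or under -1.5; controls are left without a call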
Here is one part, drawn at random, of about 18,000 deposited reagents. Of all reagents, about 2,900 (16%) got an active call. 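Calls are made per well; low scores hint the gene aids the LPS response, high scores that it dampens it.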 Repeated entries: four replicate wells of each siRNA pool.

gene | TNF reporter robust z-score | Call
DLK1 | 0.37 | inactive
DLK1 | 0.71 | inactive
DLK1 | 0.45 | inactive
DLK1 | 1.02 | inactive
VARS1 | 0.57 | inactive
VARS1 | 1.57 | inactive
VARS1 | 1.38 | inactive
VARS1 | 2.31 | inactive
TEDDM1 | 0.23 | inactive
TEDDM1 | -0.37 | inactive
TEDDM1 | 0.16 | inactive
TEDDM1 | 0.1 | inactive
ADAMTS15 | -0.62 | inactive
ADAMTS15 | 0.97 | inactive
ADAMTS15 | 0.42 | inactive
ADAMTS15 | 0.18 | inactive
POMT2 | -0.92 | inactive
POMT2 | -0.48 | inactive
POMT2 | -0.28 | inactive
POMT2 | -0.13 | inactive
PTH2R | -0.71 | inactive
PTH2R | 0.06 | inactive
PTH2R | -0.29 | inactive
PTH2R | 0.35 | inactive
BRWD1 | -0.1 | inactive
BRWD1 | 0.38 | inactive
BRWD1 | -0.64 | inactive
BRWD1 | 0.37 | inactive
C9orf40 | -0.51 | inactive
C9orf40 | -0.14 | inactive
C9orf40 | -1.26 | inactive
C9orf40 | 0 | inactive
LTB | -0.84 | inactive
LTB | -0.9 | inactive
LTB | -0.99 | inactive
LTB | -0.67 | inactive
PTPN5 | -0.5 | inactive
PTPN5 | 0.26 | inactive
PTPN5 | -0.06 | inactive
PTPN5 | -0.04 | inactive
IGFL2 | 2.48 | inactive
IGFL2 | 1.36 | inactive
IGFL2 | 1.78 | inactive
IGFL2 | 1.73 | inactive
APOBEC3A | -0.05 | inactive
APOBEC3A | 1.03 | inactive
APOBEC3A | 0.28 | inactive
APOBEC3A | 1.73 | inactive
AGAP7P | 0.7 | inactive
AGAP7P | 2.04 | inactive
AGAP7P | 1.68 | inactive
AGAP7P | 2.66 | inactive
NEK11 | -0.73 | inactive
NEK11 | -0.67 | inactive
NEK11 | -0.09 | inactive
NEK11 | -0.6 | inactive
CNN1 | 0.37 | inactive
CNN1 | -0.73 | inactive
CNN1 | -0.87 | inactive
CNN1 | 0.16 | inactive
METTL21C | -0.16 | inactive
METTL21C | 0.13 | inactive
METTL21C | -0.79 | inactive
METTL21C | 0.49 | inactive
MRAS | -1.25 | inactive
MRAS | -0.93 | inactive
MRAS | -1.05 | inactive
MRAS | -1.3 | inactive
KIF21A | -0.91 | inactive
KIF21A | -1.13 | inactive
KIF21A | 0 | inactive
KIF21A | 0.32 | inactive
PHB1 | 0.59 | inactive
PHB1 | 0.24 | inactive
PHB1 | 0.03 | inactive
PHB1 | -0.12 | inactive
ZNF471 | 0.61 | inactive
ZNF471 | 0.64 | inactive
ZNF471 | -0.27 | inactive
ZNF471 | -0.11 | inactive
SNTB1 | 0.39 | inactive
SNTB1 | -0.76 | inactive
SNTB1 | 0.9 | inactive
SNTB1 | 0.58 | inactive
ARHGAP35 | -0.92 | inactive
ARHGAP35 | -0.73 | inactive
ARHGAP35 | -0.77 | inactive
ARHGAP35 | -1.33 | inactive
DNAJC3 | -0.85 | inactive
DNAJC3 | 0.97 | inactive
DNAJC3 | -0.05 | inactive
DNAJC3 | -0.37 | inactive
USF3 | -0.71 | inactive
USF3 | -1.14 | inactive
USF3 | -1.17 | inactive
USF3 | -0.4 | inactive
BECN1 | 1.66 | inactive
BECN1 | 1.86 | inactive
BECN1 | 3.44 | active
BECN1 | 3.25 | active
CCNB1 | -1.02 | inactive
CCNB1 | -0.13 | inactive
CCNB1 | -0.72 | inactive
CCNB1 | -0.41 | inactive
ZNF121 | -0.72 | inactive
ZNF121 | -0.08 | inactive
ZNF121 | -0.95 | inactive
ZNF121 | -0.53 | inactive
HMBS | 1.56 | inactive
HMBS | 2.85 | active
HMBS | 1.71 | inactive
HMBS | 4.42 | active

Entries listed so far whose gene name begins with L or l:
gene | TNF reporter robust z-score | Call
LTB | -0.84 | inactive
LTB | -0.9 | inactive
LTB | -0.99 | inactive
LTB | -0.67 | inactive
